Test results published in paper doi:10.1101/316448.
These are yes or no findings as the source states them, for the method shown. In cells and extracts the contact can be indirect. A result given as binding can be weak or reduced; the word gives no strength. Tags and fused reporters may be left off the sequences shown.

Protein sequences, listed by entry. Tags and fused reporters are not part of them. Lines headed by an entry give the natural chain unless they say otherwise; changes in a name come on top.
UniProt Q24025: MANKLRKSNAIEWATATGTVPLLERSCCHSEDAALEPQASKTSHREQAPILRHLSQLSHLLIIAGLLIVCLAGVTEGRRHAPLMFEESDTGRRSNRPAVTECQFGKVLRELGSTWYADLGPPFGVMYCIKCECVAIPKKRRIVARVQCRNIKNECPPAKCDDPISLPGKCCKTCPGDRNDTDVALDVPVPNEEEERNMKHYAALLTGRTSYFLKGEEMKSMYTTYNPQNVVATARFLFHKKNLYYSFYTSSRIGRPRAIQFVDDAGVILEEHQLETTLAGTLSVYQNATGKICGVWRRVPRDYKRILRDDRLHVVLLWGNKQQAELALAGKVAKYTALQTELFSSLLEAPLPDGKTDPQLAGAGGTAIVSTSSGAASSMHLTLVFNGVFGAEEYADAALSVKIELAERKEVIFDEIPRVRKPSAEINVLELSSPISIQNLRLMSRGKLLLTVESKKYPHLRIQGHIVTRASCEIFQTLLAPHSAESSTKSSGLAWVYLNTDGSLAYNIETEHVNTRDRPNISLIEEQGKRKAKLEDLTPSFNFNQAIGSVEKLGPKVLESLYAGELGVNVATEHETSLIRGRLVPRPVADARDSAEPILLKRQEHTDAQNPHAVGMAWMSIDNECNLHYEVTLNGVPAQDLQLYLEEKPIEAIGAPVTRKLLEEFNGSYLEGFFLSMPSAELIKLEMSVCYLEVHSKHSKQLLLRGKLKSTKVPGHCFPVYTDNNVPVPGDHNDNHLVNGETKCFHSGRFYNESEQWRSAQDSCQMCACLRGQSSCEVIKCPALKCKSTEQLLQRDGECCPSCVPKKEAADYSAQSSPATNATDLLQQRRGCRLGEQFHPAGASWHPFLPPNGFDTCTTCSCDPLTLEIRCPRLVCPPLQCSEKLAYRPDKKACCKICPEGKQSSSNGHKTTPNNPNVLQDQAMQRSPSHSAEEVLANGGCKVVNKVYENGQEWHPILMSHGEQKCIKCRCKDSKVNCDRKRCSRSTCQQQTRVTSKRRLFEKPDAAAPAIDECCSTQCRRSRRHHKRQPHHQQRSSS

Legend:
Test in all cases: co-IP
[1] = target: SogN123-V5/His (Sog triple glycosylation mutant) (Drosophila melanogaster) (UniProt Q24025)
[2] = target: SogN1-V5/His (Drosophila melanogaster) (UniProt Q24025)
[3] = target: N-terminal Supersog fragment of Sog (Drosophila melanogaster)

Measured: binding

B1: Dpp-HA (Decapentaplegic) homodimer (ligand, UniProt P07713 457-588)
chain: DVSGGEGGGKGGRNKRQPRRPTRRKNHDDTCRRHSLYVDFSDVGWDDWIVAPLGYDAYYCHGKCPFPLADHFNSTNHAVVQTLVNNMNPGKVPKACCVPTQLDSVAMLYLNDQSTVVLKNYQEMTVVGCGCR
binds: all assays above
